Paper PMC1896016
No constants are given. Whether binding was seen depends on the method and setting. In cells and extracts the contact can be indirect. Some binding calls cover weakened binding; strength is not graded here. For some assays here: Where a sequence is shown, tags or fusion partners need not be part of it.

The chains behind the UniProt entries cited, without tags or fusion partners.
UniProt Q94545: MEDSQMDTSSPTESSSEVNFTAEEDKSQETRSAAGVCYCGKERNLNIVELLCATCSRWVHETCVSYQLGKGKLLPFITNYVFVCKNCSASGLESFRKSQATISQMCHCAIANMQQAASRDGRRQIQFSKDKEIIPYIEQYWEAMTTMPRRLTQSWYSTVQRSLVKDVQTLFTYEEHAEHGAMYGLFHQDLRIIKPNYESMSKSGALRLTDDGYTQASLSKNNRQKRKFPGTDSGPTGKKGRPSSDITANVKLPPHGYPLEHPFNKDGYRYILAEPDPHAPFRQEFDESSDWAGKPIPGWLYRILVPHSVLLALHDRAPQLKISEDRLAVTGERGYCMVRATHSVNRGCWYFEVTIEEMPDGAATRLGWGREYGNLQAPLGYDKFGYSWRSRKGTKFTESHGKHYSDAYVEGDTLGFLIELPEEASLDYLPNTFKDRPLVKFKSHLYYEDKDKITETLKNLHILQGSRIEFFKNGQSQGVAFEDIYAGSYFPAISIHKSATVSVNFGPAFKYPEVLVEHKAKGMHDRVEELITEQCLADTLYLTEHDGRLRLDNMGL

Tests used:
[1] = biological target: T1, HCF-Flag (host-cell factor, Drosophila), expressed in S2 cells (Drosophila) (UniProt Q9V4C8); test: co-IP; S2 cells co-transfected with HCF-Flag and ASH2-V5; anti-Flag M2 beads, blot anti-V5; lysis 50 mM Tris HCl pH 7.4, 150 mM NaCl, 1 mM EDTA, 1% Triton X-100; second wash 300 mM NaCl; 4°C
T1 sequence: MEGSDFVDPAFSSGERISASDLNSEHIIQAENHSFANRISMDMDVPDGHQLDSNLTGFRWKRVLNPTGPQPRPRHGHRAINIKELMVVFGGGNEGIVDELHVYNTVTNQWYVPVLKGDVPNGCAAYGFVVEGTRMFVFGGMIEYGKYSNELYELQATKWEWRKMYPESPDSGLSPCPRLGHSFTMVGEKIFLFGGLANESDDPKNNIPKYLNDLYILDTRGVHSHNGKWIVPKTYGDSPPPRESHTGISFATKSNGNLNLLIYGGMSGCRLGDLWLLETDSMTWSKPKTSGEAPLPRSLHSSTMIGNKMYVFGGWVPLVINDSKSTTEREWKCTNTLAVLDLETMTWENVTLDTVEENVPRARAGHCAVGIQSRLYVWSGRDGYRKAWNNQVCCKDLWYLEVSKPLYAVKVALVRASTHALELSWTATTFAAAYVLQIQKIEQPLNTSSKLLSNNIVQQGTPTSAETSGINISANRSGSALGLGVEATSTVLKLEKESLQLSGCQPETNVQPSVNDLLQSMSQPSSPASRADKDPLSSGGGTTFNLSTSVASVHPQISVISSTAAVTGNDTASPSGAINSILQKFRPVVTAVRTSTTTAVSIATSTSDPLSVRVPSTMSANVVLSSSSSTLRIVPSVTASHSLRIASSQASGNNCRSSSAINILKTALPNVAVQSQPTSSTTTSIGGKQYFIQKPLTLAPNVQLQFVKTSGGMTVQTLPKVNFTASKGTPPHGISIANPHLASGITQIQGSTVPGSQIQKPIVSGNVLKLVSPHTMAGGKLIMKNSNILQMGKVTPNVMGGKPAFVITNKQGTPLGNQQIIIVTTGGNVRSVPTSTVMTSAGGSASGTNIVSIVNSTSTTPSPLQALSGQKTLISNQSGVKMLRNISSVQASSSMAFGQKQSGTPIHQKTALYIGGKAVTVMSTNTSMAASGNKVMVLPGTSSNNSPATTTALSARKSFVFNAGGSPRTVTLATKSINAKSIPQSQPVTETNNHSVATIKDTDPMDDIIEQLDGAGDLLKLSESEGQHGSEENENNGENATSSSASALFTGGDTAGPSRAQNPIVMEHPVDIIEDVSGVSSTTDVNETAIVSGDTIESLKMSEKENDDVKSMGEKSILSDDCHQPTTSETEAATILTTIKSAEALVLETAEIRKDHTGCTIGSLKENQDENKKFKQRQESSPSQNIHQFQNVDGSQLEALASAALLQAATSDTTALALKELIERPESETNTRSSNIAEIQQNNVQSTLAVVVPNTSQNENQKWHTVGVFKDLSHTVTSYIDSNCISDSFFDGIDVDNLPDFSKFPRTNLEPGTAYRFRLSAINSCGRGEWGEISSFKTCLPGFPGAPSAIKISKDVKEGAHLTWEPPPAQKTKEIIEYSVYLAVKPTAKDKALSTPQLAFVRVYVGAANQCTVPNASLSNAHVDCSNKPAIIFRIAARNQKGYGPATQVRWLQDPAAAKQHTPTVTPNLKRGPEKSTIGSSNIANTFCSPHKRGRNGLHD

[2] = biological target: ASH2-HA (Drosophila), overexpressed in transgenic embryos (Drosophila) (UniProt Q94545); test: co-IP; extract of 0-16 h transgenic embryos overexpressing ASH2-HA (da-Gal4); anti-HA affinity matrix; 50 mM Tris pH 8, 200 mM NaCl, 5 mM EDTA, 0.5% NP40; wt embryos as negative control

ASH2-V5 (absent, small or homeotic discs 2, Drosophila), expressed in S2 cells (from UniProt Q94545 1-556)
binding [1]: binds

B1: HCF (host-cell factor), endogenous in Drosophila embryos (protein, UniProt Q9V4C8 1-1500)
chain: MEGSDFVDPAFSSGERISASDLNSEHIIQAENHSFANRISMDMDVPDGHQLDSNLTGFRWKRVLNPTGPQPRPRHGHRAINIKELMVVFGGGNEGIVDELHVYNTVTNQWYVPVLKGDVPNGCAAYGFVVEGTRMFVFGGMIEYGKYSNELYELQATKWEWRKMYPESPDSGLSPCPRLGHSFTMVGEKIFLFGGLANESDDPKNNIPKYLNDLYILDTRGVHSHNGKWIVPKTYGDSPPPRESHTGISFATKSNGNLNLLIYGGMSGCRLGDLWLLETDSMTWSKPKTSGEAPLPRSLHSSTMIGNKMYVFGGWVPLVINDSKSTTEREWKCTNTLAVLDLETMTWENVTLDTVEENVPRARAGHCAVGIQSRLYVWSGRDGYRKAWNNQVCCKDLWYLEVSKPLYAVKVALVRASTHALELSWTATTFAAAYVLQIQKIEQPLNTSSKLLSNNIVQQGTPTSAETSGINISANRSGSALGLGVEATSTVLKLEKESLQLSGCQPETNVQPSVNDLLQSMSQPSSPASRADKDPLSSGGGTTFNLSTSVASVHPQISVISSTAAVTGNDTASPSGAINSILQKFRPVVTAVRTSTTTAVSIATSTSDPLSVRVPSTMSANVVLSSSSSTLRIVPSVTASHSLRIASSQASGNNCRSSSAINILKTALPNVAVQSQPTSSTTTSIGGKQYFIQKPLTLAPNVQLQFVKTSGGMTVQTLPKVNFTASKGTPPHGISIANPHLASGITQIQGSTVPGSQIQKPIVSGNVLKLVSPHTMAGGKLIMKNSNILQMGKVTPNVMGGKPAFVITNKQGTPLGNQQIIIVTTGGNVRSVPTSTVMTSAGGSASGTNIVSIVNSTSTTPSPLQALSGQKTLISNQSGVKMLRNISSVQASSSMAFGQKQSGTPIHQKTALYIGGKAVTVMSTNTSMAASGNKVMVLPGTSSNNSPATTTALSARKSFVFNAGGSPRTVTLATKSINAKSIPQSQPVTETNNHSVATIKDTDPMDDIIEQLDGAGDLLKLSESEGQHGSEENENNGENATSSSASALFTGGDTAGPSRAQNPIVMEHPVDIIEDVSGVSSTTDVNETAIVSGDTIESLKMSEKENDDVKSMGEKSILSDDCHQPTTSETEAATILTTIKSAEALVLETAEIRKDHTGCTIGSLKENQDENKKFKQRQESSPSQNIHQFQNVDGSQLEALASAALLQAATSDTTALALKELIERPESETNTRSSNIAEIQQNNVQSTLAVVVPNTSQNENQKWHTVGVFKDLSHTVTSYIDSNCISDSFFDGIDVDNLPDFSKFPRTNLEPGTAYRFRLSAINSCGRGEWGEISSFKTCLPGFPGAPSAIKISKDVKEGAHLTWEPPPAQKTKEIIEYSVYLAVKPTAKDKALSTPQLAFVRVYVGAANQCTVPNASLSNAHVDCSNKPAIIFRIAARNQKGYGPATQVRWLQDPAAAKQHTPTVTPNLKRGPEKSTIGSSNIANTFCSPHKRGRNGLHD
binding [2]: binds
